This is an account of results in the supplement of paper PMC7666118.

The chains behind the UniProt entries cited, without tags or fusion partners. Where a name states a change or a piece, a line headed by the entry shows the natural chain unless it says otherwise.
UniProt Q9NWH9: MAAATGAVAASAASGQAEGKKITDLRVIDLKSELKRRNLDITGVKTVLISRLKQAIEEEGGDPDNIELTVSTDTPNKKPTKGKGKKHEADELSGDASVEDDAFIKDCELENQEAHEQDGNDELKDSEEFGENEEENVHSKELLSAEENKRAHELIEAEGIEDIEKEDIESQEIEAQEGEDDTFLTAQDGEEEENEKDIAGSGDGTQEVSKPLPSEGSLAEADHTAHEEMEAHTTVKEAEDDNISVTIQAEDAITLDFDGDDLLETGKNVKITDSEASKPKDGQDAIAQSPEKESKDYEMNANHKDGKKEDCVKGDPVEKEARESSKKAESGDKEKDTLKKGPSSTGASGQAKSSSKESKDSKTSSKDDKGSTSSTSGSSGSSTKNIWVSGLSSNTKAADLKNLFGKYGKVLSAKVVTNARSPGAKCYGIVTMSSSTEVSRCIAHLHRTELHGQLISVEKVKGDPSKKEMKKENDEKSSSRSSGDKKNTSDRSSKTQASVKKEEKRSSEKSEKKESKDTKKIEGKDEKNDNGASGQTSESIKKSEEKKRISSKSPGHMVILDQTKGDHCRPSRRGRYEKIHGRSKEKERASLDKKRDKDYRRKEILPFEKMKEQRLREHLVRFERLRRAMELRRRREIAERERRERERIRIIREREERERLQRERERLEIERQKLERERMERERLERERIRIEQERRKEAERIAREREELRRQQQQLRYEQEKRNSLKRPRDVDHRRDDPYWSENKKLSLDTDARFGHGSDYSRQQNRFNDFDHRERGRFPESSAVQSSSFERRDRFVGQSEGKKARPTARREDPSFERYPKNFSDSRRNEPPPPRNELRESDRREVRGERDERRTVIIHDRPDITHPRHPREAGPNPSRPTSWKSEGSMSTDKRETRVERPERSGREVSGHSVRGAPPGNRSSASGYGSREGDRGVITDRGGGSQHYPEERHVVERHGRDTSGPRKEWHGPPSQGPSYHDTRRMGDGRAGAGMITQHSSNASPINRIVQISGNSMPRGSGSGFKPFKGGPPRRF

The other results are listed elsewhere or left out.

In the experiment the target is SLTM (UniProt Q9NWH9). Briefly: dose-dependent thermal stabilisation call (2D-TPP, DLPTP, 10% FDR) (binary (1 = stabilised)); higher = stabilised by the compound. As to conditions: system: HL-60 intact cells; concentration range 0.04-10 µM. The protocol:
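2D thermal proteome profiling in intact HL-60 cells treated with BRD-3811 (0, 0.04, 0.29, 2, 10 uM) for 90 min at 37 C, then heated 3 min at one of 12 temperatures (42-63.9 C). Soluble protein was quantified by TMT10 MS. The value is the DLPTP call of the paper: dose-dependent thermal stabilisation over all temperatures at 10% FDR (F-test of a dose-response against a flat model); one experiment, one call per tested protein.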
Consider `COc1ccc(Cn2ccc3cc(C)c(C(=O)NO)cc32)cc1`, for which the “dose-dependent thermal stabilisation call” value was inactive: 0.
